Laboratory results published in patent US20130053310A1 (NOVO NORDISK A/S, priority 2010, published 2013).
For at least one compound, name, drawing or mass did not settle the structure.

Experiment: Assay (II) ThT fibrillation assay for physical stability
Assay type: physicochemical
Conditions: 250 μM in 1 μM ThT, 10 mM Hepes buffer pH 7.5
From the text: This has traditionally been measured by visual inspection of the sample. However, that kind of measurement is very subjective and depending on the observer. Therefore, the application of a small molecule indicator probe is much more advantageous.
Here, F is the ThT fluorescence at the time t. The constant t0 is the time needed to reach 50% of maximum fluorescence.
Few of those intermediates nucleate to form a template onto which further intermediates may assembly and the fibrillation proceeds. The lag-time corresponds to the interval in which the critical mass of nucleus is built up and the apparent rate constant is the rate with which the fibril itself is formed.
Samples were prepared freshly before each assay. […] The pH of the sample was adjusted to the desired value using appropriate amounts of concentrated NaOH and HCl. Thioflavin T was added to the samples from a stock solution in H2O to a final concentration of 1 μM.
The plate was sealed with Scotch Pad (Qiagen).
Each run was initiated by incubating the plate at the assay temperature for 10 min. The plate was measured every 20 minutes for a desired period of time. Between each measurement, the plate was shaken and heated as described.
The supernatant was filtered through a 0.22 μm filter and an aliquot was transferred to a HPLC vial. […]

In the case of `CC(C)C[C@H](NC(=O)[C@H](Cc1ccc(O)cc1)NC(=O)[C@H](CCCCN)NC(=O)[C@H](CO)NC(=O)[C@H](Cc1ccc(O)cc1)NC(=O)[C@H](CC(=O)O)NC(=O)[C@H](CO)NC(=O)[C@@H](NC(=O)[C@H](Cc1ccccc1)NC(=O)[C@@H](NC(=O)CNC(=O)[C@H](CCC(N)=O)NC(=O)[C@H](CO)NC(=O)[C@@H](N)Cc1c[nH]cn1)[C@@H](C)O)[C@@H](C)O)C(=O)N[C@@H](CC(=O)O)C(=O)N[C@@H](CO)C(=O)N[C@@H](CCCNC(=N)N)C(=O)N[C@@H](CCCNC(=N)N)C(=O)N[C@@H](C)C(=O)N[C@@H](CCC(N)=O)C(=O)N[C@@H](CC(=O)O)C(=O)N[C@@H](Cc1ccccc1)C(=O)N[C@H](C(=O)N[C@@H](CCC(N)=O)C(=O)N[C@@H](Cc1ccc(OP(=O)(O)O)cc1)C(=O)N[C@@H](CC(C)C)C(=O)N[C@@H](CC(C)C)C(=O)N[C@@H](CC(N)=O)C(=O)N[C@H](C(=O)O)[C@@H](C)O)C(C)C` [Example 2, [(O-phosphono)Tyr^25,Leu^27]Glucagon], the “lag time before fibrillation” value was “approx. 16 hours”.
